These are yes or no findings as the source states them, for the method shown. In cells and extracts the contact can be indirect. Some entries that bind do so weakly or less than the wild type.
Molecular target: T1, Sin3a (UniProt Q60520)
T1 sequence: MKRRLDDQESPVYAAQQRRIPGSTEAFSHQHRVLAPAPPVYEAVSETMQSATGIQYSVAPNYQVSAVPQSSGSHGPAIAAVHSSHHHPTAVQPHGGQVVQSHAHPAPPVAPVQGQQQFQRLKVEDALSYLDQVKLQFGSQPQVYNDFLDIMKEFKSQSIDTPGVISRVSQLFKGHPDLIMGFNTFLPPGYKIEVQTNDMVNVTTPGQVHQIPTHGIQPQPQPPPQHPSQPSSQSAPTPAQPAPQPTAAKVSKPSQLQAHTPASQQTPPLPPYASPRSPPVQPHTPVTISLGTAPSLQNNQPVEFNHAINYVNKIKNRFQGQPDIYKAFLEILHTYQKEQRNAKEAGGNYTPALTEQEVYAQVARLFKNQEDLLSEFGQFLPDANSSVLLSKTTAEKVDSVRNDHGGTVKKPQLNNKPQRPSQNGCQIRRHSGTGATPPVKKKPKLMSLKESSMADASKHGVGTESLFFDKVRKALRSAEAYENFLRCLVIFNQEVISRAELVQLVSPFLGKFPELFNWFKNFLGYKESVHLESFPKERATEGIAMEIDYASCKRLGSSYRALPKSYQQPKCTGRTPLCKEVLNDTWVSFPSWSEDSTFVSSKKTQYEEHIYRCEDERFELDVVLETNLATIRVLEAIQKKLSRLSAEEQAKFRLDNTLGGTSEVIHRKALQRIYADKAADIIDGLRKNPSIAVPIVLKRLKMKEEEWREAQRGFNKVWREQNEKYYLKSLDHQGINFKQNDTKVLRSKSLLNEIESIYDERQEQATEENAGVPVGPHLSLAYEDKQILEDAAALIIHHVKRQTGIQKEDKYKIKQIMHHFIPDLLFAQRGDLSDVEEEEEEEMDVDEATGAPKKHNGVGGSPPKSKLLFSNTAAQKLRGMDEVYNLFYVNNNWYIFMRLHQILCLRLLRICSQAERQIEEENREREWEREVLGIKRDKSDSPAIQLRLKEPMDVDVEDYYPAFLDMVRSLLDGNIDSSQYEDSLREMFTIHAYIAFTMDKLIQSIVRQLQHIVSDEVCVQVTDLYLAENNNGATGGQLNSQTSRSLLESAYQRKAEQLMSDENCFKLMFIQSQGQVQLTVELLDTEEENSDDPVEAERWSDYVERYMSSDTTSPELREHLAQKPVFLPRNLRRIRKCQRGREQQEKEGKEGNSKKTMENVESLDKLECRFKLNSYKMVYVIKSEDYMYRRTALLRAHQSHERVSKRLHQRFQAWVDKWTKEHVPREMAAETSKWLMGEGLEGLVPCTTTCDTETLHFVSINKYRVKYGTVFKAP
Assay: co-IP; 293T cells cotransfected with Sin3a and Foxp3 plasmids, lysed after 48 h in 20 mM Tris-Cl pH 7.5, 1% Triton-X100, 150 mM NaCl; ~300 µg lysate protein immunoprecipitated with 5 µg antibody for 2 h at 4°C, protein A/G magnetic beads; Western blot; no benzonase treatment

B1: Foxp3 (protein, UniProt Q99JB6 1-417)
chain: MPNPRPAKPMAPSLALGPSPGVLPSWKTAPKGSELLGTRGSGGPFQGRDLRSGAHTSSSLNPLPPSQLQLPTVPLVMVAPSGARLGPSPHLQALLQDRPHFMHQLSTVDAHAQTPVLQVRPLDNPAMISLPPPSAATGVFSLKARPGLPPGINVASLEWVSREPALLCTFPRSGTPRKDSNLLAAPQGSYPLLANGVCKWPGCEKVFEEPEEFLKHCQADHLLDEKGKAQCLLQREVVQSLEQQLELEKEKLGAMQAHLAGKMALAKAPSVASMDKSSCCIVATSTQGSVLPAWSAPREAPDGGLFAVRRHLWGSHGNSSFPEFFHNMDYFKYHNMRPPFTYATLIRWAILEAPERQRTLNEIYHWFTRMFAYFRNHPATWKNAIRHNLSLHKCFVRVESEKGAVWTVDEFEFRKKR
  binding: binds
